# Measurements as given in paper PMC9307593.
# No constants are given. Whether binding was seen depends on the method and setting. In cells and extracts the contact can be indirect. A yes stands for co-enrichment or nearness to the bait. Other partners may have been found. Where a sequence is shown, tags or fusion partners need not be part of it.
# Tests used:
# [1] = molecular target: T1, Flag-tagged NUPR1 (wild type) (UniProt O60356); experiment: affinity purification with mass spectrometry; MiaPaCa-2 cells expressing Flag-NUPR1 or GFP-NUPR1, normal conditions or 24 h glucose starvation; lysates on anti-Flag M2 beads or GFP-Trap agarose; eluted proteins identified by LC-MS/MS
# T1 sequence: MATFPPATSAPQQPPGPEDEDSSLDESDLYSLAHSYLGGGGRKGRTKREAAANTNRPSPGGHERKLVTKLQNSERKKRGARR
# GFP-tagged NUPR1 = molecular target: T2, GFP-tagged NUPR1 (UniProt O60356); experiment: as above
# T2 sequence: T1 sequence
substance,measurement,setting,value
"PARP1 (endogenous, MiaPaCa-2 cells) (human (endogenous in MiaPaCa-2)) (enzyme)",binding,[1],binds
same,binding,GFP-tagged NUPR1,binds
